Where a chain is given by its changes, count along the chain named. Results are given in words; binding and its absence hold for the method and conditions named. Binding seen in cells or lysates may run through a third protein. Some binding calls cover weakened binding; strength is not graded here. For some of these results: Where a sequence is shown, tags or fusion partners need not be part of it.
Assays:
[1] = molecular target: T1, cellular Tbk1 (TANK binding kinase 1), endogenous in RGC-5 cells (mouse (endogenous in RGC-5)) (UniProt Q9WUN2); assay: co-IP; RGC-5 cells infected with adenoviruses expressing HA-tagged WT-OPTN or M98K-OPTN for 24 hrs; lysate (25 mM Tris-HCl pH 7.4, 150 mM NaCl, 0.8% Triton X-100, 5 mM EDTA) immunoprecipitated with Tbk1 antibody or control antibody at 4°C; blot with HA and Tbk1 antibodies
T1 sequence: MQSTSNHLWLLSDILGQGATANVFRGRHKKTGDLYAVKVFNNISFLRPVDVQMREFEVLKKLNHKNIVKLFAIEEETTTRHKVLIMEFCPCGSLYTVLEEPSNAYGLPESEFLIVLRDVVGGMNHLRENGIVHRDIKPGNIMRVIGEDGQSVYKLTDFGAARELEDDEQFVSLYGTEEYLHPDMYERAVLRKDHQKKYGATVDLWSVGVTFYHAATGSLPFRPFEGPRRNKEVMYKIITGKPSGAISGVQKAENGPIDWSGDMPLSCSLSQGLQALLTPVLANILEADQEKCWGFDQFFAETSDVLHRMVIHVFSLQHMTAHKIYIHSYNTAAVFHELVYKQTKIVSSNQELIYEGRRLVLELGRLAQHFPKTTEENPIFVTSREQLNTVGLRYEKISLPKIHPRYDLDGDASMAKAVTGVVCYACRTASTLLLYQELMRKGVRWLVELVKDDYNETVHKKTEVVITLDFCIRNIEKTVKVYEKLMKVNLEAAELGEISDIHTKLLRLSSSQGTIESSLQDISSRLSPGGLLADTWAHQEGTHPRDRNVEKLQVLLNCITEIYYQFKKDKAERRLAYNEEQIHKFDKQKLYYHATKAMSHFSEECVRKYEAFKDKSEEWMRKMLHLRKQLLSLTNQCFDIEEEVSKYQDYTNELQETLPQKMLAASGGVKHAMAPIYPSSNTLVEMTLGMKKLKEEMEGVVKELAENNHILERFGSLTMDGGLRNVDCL

Chains of the proteins cited; added tags and fusions are not shown. Lines headed by an entry give the natural chain unless they say otherwise; changes in a name come on top.
UniProt Q96CV9: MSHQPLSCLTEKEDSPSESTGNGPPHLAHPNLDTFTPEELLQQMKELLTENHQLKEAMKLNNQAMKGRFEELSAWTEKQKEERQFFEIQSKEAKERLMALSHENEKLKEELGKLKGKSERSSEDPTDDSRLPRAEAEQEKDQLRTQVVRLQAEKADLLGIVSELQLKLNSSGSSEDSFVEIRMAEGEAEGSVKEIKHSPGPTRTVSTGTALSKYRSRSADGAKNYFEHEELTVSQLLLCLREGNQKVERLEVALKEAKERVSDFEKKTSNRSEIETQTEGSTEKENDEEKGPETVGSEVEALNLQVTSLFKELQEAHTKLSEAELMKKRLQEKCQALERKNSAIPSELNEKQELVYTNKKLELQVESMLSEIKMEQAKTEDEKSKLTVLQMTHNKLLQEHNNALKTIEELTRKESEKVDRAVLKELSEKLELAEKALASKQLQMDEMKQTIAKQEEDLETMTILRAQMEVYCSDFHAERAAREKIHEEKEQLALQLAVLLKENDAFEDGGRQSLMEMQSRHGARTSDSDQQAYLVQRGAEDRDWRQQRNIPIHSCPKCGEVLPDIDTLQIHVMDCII

[2] = molecular target: T2, GFP-K38A-Tbk1 (catalytically inactive mutant of mouse Tbk1) (mouse) (UniProt Q9WUN2); assay: co-IP; RGC-5 cells co-transfected with plasmids for HA-tagged WT-OPTN or M98K-OPTN and GFP-tagged K38A-Tbk1 for 24 hrs; lysate immunoprecipitated with GFP antibody or control antibody; blot with HA and GFP antibodies
T2 sequence: T1 sequence with K38A

| Substance | binding [1] | binding [2] |
| --- | --- | --- |
| HA-tagged M98K-OPTN (glaucoma-associated variant of human optineurin) (from UniProt Q96CV9 1-577) | binds | binds |
| HA-tagged WT-OPTN (human optineurin) (from UniProt Q96CV9 1-577) | binds | binds |
